In article PMC7817837:
No constants are given. Whether binding was seen depends on the method and setting. In cells and extracts the contact can be indirect. Some entries that bind do so weakly or less than the wild type.

Sequences of proteins named here, by UniProt entry; tags and fusion partners are left off. A change or cut given only in a name is not applied to a line headed by its entry.
UniProt Q96D31: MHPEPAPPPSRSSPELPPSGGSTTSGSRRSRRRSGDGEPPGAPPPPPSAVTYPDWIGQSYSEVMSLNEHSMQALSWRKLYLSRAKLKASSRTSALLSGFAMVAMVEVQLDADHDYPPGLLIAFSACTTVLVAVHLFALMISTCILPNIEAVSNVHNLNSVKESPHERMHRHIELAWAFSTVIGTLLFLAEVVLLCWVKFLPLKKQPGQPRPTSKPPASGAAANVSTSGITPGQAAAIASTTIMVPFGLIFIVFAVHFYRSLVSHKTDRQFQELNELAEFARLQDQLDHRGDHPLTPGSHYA
UniProt P15311: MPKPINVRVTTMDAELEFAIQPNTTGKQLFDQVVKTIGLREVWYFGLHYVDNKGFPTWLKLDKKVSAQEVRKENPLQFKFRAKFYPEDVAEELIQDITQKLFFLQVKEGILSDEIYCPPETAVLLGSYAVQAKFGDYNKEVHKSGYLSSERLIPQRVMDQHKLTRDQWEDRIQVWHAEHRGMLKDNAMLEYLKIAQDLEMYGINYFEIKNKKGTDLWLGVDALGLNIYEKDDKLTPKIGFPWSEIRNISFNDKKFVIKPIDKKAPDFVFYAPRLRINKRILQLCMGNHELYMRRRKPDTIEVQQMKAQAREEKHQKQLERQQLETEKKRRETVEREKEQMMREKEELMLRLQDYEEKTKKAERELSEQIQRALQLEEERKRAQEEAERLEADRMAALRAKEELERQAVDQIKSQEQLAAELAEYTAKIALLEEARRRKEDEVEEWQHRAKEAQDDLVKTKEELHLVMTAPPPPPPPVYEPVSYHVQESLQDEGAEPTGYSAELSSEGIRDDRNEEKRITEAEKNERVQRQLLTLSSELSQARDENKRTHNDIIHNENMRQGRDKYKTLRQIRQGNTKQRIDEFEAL

Biological target: Orai1-HA (UniProt Q96D31)
Assay: co-IP; STIM1-FLAG and Orai1-HA co-expressed with GFP or GFP-ezrin (T567E, graded expression); lysate in IP buffer (20 mM Tris-HCl pH 7.5, 150 mM NaCl, 1% Triton X-100, protease inhibitors); anti-DYKDDDDK mAb beads, 2 h; immunoblot with anti-FLAG, anti-HA and anti-GFP

GFP-ezrin T567E (from UniProt P15311 1-586)
binding: binds
